Experimental data from the supplement of paper PMC5836539.
± gives the standard deviation of the averaged measurements. This data set is noisy: repeats of one test often differ as much as different tests do.

The chains behind the UniProt entries cited, without tags or fusion partners.
UniProt Q16655, whole entry, looked up: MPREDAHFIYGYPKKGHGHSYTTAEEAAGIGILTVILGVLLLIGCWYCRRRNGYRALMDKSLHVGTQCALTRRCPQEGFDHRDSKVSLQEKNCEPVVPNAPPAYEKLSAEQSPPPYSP
UniProt Q92538, whole entry, looked up: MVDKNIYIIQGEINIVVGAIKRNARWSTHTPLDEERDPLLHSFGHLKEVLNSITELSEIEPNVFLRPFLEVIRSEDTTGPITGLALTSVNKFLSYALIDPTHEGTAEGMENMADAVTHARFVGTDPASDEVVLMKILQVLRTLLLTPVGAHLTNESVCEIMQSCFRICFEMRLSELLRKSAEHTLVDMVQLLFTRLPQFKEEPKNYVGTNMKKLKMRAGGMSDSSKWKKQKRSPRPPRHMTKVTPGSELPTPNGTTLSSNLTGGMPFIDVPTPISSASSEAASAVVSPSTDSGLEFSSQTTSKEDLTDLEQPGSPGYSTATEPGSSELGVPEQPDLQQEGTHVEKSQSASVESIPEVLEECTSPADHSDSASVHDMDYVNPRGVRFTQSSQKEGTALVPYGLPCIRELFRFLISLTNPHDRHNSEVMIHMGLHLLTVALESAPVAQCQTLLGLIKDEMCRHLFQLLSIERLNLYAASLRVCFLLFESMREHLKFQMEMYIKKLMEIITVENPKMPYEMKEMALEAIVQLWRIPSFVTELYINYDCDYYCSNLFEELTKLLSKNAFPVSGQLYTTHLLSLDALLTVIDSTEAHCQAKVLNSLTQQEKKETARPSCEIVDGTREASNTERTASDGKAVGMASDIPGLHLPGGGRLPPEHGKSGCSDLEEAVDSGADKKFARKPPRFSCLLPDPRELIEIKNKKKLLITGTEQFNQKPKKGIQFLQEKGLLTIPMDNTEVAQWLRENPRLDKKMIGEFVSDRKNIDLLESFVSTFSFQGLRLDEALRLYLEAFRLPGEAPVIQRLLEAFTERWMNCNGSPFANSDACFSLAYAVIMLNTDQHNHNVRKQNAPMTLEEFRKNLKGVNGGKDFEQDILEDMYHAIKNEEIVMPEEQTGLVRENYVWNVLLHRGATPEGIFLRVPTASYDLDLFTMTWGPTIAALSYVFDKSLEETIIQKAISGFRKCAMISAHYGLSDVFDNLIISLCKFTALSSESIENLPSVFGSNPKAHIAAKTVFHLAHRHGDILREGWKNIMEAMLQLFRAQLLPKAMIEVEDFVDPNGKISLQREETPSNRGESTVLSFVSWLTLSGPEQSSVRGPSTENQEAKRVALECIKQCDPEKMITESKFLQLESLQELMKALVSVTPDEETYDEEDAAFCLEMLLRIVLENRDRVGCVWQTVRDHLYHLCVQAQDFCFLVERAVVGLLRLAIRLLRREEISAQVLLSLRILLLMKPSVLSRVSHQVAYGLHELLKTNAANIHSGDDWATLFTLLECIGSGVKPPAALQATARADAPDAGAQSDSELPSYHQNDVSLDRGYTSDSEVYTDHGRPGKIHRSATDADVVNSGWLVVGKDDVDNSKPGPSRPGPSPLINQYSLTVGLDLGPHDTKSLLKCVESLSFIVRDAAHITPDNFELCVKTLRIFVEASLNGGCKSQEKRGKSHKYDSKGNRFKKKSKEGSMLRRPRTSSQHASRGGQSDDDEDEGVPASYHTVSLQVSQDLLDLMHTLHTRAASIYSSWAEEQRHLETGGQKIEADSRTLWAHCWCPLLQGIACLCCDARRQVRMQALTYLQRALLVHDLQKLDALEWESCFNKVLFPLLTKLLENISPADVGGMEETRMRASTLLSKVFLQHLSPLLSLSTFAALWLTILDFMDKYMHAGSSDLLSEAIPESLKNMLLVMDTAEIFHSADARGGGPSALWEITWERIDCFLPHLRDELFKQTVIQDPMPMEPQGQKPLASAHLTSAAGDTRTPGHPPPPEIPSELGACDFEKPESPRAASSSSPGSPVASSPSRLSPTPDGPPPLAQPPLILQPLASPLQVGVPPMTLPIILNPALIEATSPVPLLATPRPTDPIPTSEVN
UniProt Q92769, whole entry, looked up: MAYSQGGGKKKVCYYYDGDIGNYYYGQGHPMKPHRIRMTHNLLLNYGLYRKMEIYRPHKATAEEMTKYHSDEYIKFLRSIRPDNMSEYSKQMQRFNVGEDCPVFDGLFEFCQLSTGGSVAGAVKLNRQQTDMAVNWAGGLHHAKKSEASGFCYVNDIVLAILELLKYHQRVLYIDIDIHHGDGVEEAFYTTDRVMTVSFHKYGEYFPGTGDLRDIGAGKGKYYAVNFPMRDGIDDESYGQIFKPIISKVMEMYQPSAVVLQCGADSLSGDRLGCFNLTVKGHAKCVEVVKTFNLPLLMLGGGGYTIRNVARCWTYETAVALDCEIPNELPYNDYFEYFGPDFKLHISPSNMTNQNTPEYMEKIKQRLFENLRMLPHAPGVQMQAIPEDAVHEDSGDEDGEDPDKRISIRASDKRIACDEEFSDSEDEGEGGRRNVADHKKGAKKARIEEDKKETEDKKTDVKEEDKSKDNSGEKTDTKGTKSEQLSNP
UniProt Q93008, whole entry, looked up: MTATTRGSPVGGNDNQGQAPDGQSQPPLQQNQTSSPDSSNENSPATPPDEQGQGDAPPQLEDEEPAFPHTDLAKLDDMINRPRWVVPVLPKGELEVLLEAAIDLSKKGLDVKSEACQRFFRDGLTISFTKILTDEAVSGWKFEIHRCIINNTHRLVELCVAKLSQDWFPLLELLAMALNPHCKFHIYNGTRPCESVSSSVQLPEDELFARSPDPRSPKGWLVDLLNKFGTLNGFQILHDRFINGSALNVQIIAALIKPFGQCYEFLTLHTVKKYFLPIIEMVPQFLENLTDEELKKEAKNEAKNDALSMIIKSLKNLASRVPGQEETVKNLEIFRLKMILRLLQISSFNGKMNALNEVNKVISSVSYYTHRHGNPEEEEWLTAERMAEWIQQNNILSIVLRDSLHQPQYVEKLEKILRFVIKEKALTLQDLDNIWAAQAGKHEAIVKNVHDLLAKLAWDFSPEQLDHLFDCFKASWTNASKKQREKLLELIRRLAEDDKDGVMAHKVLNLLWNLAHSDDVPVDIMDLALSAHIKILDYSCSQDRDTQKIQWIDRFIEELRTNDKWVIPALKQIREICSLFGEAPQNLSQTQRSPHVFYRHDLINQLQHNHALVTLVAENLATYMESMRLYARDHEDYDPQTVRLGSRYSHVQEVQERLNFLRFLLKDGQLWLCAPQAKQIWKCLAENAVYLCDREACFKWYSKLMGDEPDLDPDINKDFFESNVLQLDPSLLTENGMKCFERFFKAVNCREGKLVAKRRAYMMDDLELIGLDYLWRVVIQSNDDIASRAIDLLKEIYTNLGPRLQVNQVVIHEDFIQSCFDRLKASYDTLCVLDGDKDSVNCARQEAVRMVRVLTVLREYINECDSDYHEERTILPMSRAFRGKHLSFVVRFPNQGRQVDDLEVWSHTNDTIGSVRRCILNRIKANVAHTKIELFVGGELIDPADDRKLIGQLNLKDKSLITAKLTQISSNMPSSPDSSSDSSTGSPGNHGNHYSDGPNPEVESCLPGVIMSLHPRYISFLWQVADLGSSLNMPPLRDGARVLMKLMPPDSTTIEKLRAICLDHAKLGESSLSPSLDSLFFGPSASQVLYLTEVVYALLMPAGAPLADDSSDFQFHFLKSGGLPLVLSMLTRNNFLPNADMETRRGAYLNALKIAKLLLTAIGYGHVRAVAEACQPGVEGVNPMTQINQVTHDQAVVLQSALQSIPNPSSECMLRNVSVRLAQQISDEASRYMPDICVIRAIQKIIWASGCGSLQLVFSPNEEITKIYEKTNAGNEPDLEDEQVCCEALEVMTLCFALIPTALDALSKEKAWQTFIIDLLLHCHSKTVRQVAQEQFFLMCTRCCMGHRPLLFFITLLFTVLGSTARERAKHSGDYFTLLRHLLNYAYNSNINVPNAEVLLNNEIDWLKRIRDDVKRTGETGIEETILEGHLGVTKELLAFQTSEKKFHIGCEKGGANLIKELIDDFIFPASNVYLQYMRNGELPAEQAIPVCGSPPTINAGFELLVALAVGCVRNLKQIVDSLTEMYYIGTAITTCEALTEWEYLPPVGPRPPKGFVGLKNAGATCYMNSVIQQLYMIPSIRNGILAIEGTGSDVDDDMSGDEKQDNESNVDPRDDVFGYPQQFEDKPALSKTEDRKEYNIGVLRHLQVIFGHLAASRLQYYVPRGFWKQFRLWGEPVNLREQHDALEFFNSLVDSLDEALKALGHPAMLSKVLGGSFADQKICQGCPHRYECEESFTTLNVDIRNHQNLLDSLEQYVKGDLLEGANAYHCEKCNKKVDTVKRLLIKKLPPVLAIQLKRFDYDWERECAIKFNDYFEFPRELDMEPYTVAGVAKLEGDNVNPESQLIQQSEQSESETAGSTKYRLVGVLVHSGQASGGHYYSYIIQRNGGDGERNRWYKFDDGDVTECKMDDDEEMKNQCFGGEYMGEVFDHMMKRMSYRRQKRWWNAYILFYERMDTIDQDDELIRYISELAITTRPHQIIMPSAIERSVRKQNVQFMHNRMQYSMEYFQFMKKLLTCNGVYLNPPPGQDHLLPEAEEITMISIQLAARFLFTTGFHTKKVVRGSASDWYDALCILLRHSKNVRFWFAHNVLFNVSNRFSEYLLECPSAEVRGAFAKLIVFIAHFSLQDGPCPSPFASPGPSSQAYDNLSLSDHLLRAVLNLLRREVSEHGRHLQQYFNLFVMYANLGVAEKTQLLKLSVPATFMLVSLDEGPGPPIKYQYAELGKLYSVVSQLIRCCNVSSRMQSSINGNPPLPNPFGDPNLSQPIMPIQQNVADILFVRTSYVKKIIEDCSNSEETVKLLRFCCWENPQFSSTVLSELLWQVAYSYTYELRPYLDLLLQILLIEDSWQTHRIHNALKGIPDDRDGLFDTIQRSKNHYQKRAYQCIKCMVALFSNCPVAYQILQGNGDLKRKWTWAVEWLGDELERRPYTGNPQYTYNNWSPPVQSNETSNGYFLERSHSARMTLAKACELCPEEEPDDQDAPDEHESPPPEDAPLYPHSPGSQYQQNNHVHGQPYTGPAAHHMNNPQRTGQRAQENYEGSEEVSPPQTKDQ
UniProt O14980, whole entry: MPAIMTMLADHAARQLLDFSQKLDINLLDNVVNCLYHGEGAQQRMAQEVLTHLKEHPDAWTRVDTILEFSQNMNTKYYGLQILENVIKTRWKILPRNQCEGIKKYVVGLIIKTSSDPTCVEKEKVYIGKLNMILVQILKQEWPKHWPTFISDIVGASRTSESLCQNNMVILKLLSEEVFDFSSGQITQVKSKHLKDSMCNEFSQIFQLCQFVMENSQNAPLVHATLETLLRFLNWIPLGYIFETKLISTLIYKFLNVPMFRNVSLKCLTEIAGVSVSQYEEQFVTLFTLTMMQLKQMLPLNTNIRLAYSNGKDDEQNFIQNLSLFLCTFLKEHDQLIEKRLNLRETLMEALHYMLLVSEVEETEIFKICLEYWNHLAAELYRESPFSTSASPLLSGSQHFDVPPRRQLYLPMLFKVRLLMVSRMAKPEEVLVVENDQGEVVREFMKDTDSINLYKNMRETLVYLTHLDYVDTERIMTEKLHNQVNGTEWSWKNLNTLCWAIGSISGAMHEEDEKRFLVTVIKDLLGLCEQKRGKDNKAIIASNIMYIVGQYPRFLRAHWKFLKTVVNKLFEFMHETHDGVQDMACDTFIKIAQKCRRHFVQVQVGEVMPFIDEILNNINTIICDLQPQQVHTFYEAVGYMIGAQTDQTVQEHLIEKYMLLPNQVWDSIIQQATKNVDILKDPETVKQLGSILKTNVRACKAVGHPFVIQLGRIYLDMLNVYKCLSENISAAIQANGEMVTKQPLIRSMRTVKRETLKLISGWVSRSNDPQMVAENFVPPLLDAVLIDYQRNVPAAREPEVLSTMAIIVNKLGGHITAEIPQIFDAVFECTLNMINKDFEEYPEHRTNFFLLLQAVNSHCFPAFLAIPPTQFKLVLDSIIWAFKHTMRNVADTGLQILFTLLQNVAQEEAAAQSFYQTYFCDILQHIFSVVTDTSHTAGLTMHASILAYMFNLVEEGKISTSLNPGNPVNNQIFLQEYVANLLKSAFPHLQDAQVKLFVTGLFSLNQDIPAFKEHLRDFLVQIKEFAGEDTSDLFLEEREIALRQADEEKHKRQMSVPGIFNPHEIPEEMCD
UniProt P67809, whole entry, looked up: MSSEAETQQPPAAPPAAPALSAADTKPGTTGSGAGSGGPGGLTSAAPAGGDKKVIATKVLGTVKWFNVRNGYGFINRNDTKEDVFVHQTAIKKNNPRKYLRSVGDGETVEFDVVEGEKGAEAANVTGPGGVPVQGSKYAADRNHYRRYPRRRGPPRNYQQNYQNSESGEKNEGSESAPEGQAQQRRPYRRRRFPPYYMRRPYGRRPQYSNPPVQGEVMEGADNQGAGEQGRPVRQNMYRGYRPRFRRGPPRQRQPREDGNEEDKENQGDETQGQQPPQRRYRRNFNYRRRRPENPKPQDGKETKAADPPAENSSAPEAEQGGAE

Compound: CC[C@@H](C)Nc1cc(C(=O)N[C@H]2C[C@H]3CC[C@@H](C2)N3c2ccc(C(=O)C3CC3)cn2)c(C)cc1C(N)=O [XL888]
Test: phosphopeptide melting temperature shift (XL888 minus DMSO); higher = stabilised by drug treatment
Conditions: 100 µM; treatment time 2 h; layout: intact cells; SK-Mel 28
Description: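 Phospho-TPP in intact SK-Mel 28 cells treated with 100 uM XL888 or DMSO for 2 h, heated at 10 temperatures (37-67 C) for 3 min, soluble fraction TMT10plex-labelled and TiO2 phospho-enriched. Melting curves were fitted per phosphopeptide; the value is the melting point difference (drug minus vehicle) in each of two biological replicates.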

| Target | phosphopeptide melting temperature shift [°C] |
| --- | --- |
| UniProt Q15149_phosphosite_4389 (phosphosite position: 4389) | -0.449 |
| UniProt Q15149_phosphosite_4613 (phosphosite position: 4613) | -2.21 |
| UniProt Q15149_phosphosite_4626 (phosphosite position: 4626) | 5.77 |
| UniProt Q15365_phosphosite_173 (phosphosite position: 173) | 1.13 ± 0.22 |
| UniProt Q15365_phosphosite_190 (phosphosite position: 190) | 1.34 ± 0.37 |
| UniProt Q15555-4_phosphosite_147 (phosphosite position: 147) | 1.61 ± 0.75 |
| UniProt Q15637-4_phosphosite_80 (phosphosite position: 80) | -1.48 ± 0.59 |
| UniProt Q15637-4_phosphosite_82 (phosphosite position: 82) | -1.48 ± 0.59 |
| UniProt Q15649-2_phosphosite_80 (phosphosite position: 80) | 0.204 |
| UniProt Q16181-2_phosphosite_227 (phosphosite position: 227) | 0.831 ± 0.51 |
| UniProt Q16637-4_phosphosite_31 (phosphosite position: 31) | 0.0256 ± 0.65 |
| UniProt Q16655_phosphosite_84 (phosphosite position: 84) | 3.24 |
| UniProt Q16655_phosphosite_87 (phosphosite position: 87) | 2.14 ± 1.2 |
| UniProt Q16666-3_phosphosite_106 (phosphosite position: 106) | -0.216 |
| UniProt Q16666-3_phosphosite_153 (phosphosite position: 153) | 1.27 ± 0.59 |
| UniProt Q16666-3_phosphosite_668 (phosphosite position: 668) | 0.212 ± 0.19 |
| UniProt Q92538-3_phosphosite_349 (phosphosite position: 349) | 0.643 |
| UniProt Q92538-3_phosphosite_352 (phosphosite position: 352) | 2.11 ± 1.2 |
| UniProt Q92538-3_phosphosite_1475 (phosphosite position: 1475) | 3.68 ± 1.9 |

Exported as tab-separated lines: entries from further up
Target	phosphopeptide melting temperature shift [°C]
UniProt Q16655_phosphosite_87 (phosphosite position: 87)	2.14 ± 1.2
UniProt Q16666-3_phosphosite_106 (phosphosite position: 106)	-0.216

(list continues)

| Target | phosphopeptide melting temperature shift [°C] |
| --- | --- |
| UniProt Q92734-4_phosphosite_197 (phosphosite position: 197) | -3.59 |
| UniProt Q92754-2_phosphosite_265 (phosphosite position: 265) | 0.255 |
| UniProt Q92769-3_phosphosite_392 (phosphosite position: 392) | 1.94 |
| UniProt Q92769-3_phosphosite_394 (phosphosite position: 394) | 1.73 |
| UniProt Q92878-3_phosphosite_496 (phosphosite position: 496) | -0.889 |
| UniProt Q92890_phosphosite_247 (phosphosite position: 247) | 0.77 |
| UniProt Q92974-3_phosphosite_617 (phosphosite position: 617) | 1.3 |
| UniProt Q92974-3_phosphosite_620 (phosphosite position: 620) | 2.2 ± 1.1 |
| UniProt Q92974-3_phosphosite_904 (phosphosite position: 904) | 1.49 ± 0.42 |
| UniProt Q92974-3_phosphosite_912 (phosphosite position: 912) | 5.04 |
| UniProt Q92974-3_phosphosite_913 (phosphosite position: 913) | 2.33 ± 0.94 |
| UniProt Q92974-3_phosphosite_932 (phosphosite position: 932) | 8 |
| UniProt Q93008-1_phosphosite_1600 (phosphosite position: 1600) | 0.995 ± 0.5 |
| UniProt Q93008-1_phosphosite_1609 (phosphosite position: 1609) | 0.656 |
| UniProt Q93008-1_phosphosite_2547 (phosphosite position: 2547) | 3.51 |
| UniProt Q93074-3_phosphosite_635 (phosphosite position: 635) | 2.04 |
| UniProt Q99460-2_phosphosite_311 (phosphosite position: 311) | -0.542 ± 1.9 |
| UniProt Q99460-2_phosphosite_315 (phosphosite position: 315) | -0.542 ± 1.9 |
| UniProt Q99543-2_phosphosite_60 (phosphosite position: 60) | 0.576 ± 0.23 |

Two neighbouring records from above:

| Target | phosphopeptide melting temperature shift [°C] |
| --- | --- |
| UniProt Q92974-3_phosphosite_620 (phosphosite position: 620) | 2.2 ± 1.1 |
| UniProt Q92974-3_phosphosite_904 (phosphosite position: 904) | 1.49 ± 0.42 |

Following part

| Target | phosphopeptide melting temperature shift [°C] |
| --- | --- |
| UniProt Q99543-2_phosphosite_63 (phosphosite position: 63) | 0.576 ± 0.23 |
| UniProt Q99961-3_phosphosite_224 (phosphosite position: 224) | -0.195 |
| WDR11 phosphosite_208 (phosphosite position: 208) (UniProt Q9BZH6) | 2.38 |
| WDR11 phosphosite_209 (phosphosite position: 209) (UniProt Q9BZH6) | 1.19 ± 1.3 |
| WDR62 phosphosite_1228 (phosphosite position: 1228) (UniProt O43379) | 0.797 |
| WWTR1 phosphosite_65 (phosphosite position: 65) (UniProt Q9GZV5) | -0.486 |
| WWTR1 phosphosite_66 (phosphosite position: 66) (UniProt Q9GZV5) | -1.43 |
| XPO1 phosphosite_391 (phosphosite position: 391) (UniProt O14980) | 1.61 |
| XRCC1 phosphosite_453 (phosphosite position: 453) (UniProt P18887) | 0.0984 ± 0.92 |
| YBX1 phosphosite_165 (phosphosite position: 165) (UniProt P67809) | 0.0955 ± 0.23 |
| YBX1 phosphosite_167 (phosphosite position: 167) (UniProt P67809) | -0.0272 |
| YBX1 phosphosite_176 (phosphosite position: 176) (UniProt P67809) | 1.16 |
| ZBTB7A phosphosite_549 (phosphosite position: 549) (UniProt O95365) | 2.2 |
| ZC3H4 phosphosite_92 (phosphosite position: 92) (UniProt Q9UPT8) | -0.0137 |
| ZC3H4 phosphosite_94 (phosphosite position: 94) (UniProt Q9UPT8) | -0.0137 |
| ZC3H8 phosphosite_59 (phosphosite position: 59) (UniProt Q8N5P1) | 0.738 |
| ZC3H11A phosphosite_758 (phosphosite position: 758) (UniProt O75152) | 6.45 ± 0.25 |
| ZC3HC1 phosphosite_407 (phosphosite position: 407) (UniProt Q86WB0) | -1.54 |
